In paper PMC5651247:
These are yes or no findings as the source states them, for the method shown. For part of these data: In cells and extracts the contact can be indirect. Some results given as binding are weak or reduced against the parent protein; the word gives no strength.

Chains of the proteins cited; added tags and fusions are not shown. Residues count along the entry.
UniProt Q03591, residues 19-330: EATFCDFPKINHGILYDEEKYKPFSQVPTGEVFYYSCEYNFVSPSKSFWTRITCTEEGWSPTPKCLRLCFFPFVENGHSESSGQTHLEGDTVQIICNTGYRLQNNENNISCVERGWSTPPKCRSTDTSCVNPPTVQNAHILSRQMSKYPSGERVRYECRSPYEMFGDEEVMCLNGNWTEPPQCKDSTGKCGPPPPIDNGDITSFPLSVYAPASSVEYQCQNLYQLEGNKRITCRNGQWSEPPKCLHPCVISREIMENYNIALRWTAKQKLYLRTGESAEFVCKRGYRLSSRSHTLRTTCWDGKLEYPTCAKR
UniProt P36980, residues 19-270: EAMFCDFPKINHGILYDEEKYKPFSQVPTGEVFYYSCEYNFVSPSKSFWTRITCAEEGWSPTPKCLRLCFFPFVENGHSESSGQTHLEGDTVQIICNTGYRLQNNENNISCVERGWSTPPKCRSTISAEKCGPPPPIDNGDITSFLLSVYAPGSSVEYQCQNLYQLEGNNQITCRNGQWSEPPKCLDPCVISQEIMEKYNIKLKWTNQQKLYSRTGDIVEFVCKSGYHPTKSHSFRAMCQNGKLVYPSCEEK

How the values were obtained:
[1] = biological target: Recombinant human FHR-1 (rFHR-1), CFHR1*A allotype, C-terminal 6×His (human) (UniProt Q03591); test: ELISA; the same homodimer sandwich ELISAs (one mAb to capture and to detect) on purified rFHR-1 or rFHR-2 diluted in HPE, RT; both purified
[2] = biological target: Factor H-related-1 (FHR-1), serum-derived (human (endogenous in serum)) (UniProt Q03591); test: ELISA; sandwich ELISAs for dimers in serum: FHR-1/1 (anti-FH.02 to capture and to detect), FHR-1/2 (anti-FH.02 to capture, anti-FHR-2 to detect), FHR-2/2 (anti-FHR-2-FLAG on anti-FLAG to capture, biotinylated anti-FHR-2 to detect); serum diluted in HPE, RT
[3] = biological target: Factor H-related-2 (FHR-2), serum-derived (human (endogenous in serum)) (UniProt P36980); test: co-IP; from 200 µL human serum of healthy donors with zero or two copies of CFHR1, without prior purification; anti-FH.02 (FHR-1), anti-FHR-2 or anti-FHR-5.1 on RM-19 Sepharose, PBS with 0.1% Tween-20, 0.1% BSA, 10 mM EDTA, o/n at 4°C; Western blot with anti-FHR-2.1 and anti-FHR-5.4
[4] = biological target: Factor H-related-1 (FHR-1), serum-derived (human (endogenous in serum)) (UniProt Q03591); test: heparin affinity chromatography with ELISA of the fractions; 150 µL untreated serum (NHS or pooled CFHR3/CFHR1-deficient) in 10 mM NaPO4 pH 7.4 on a 1 mL HP Heparin column, linear gradient 0 to 2 M NaCl; dimers in the fractions measured by the dimer ELISAs
[5] = biological target: Factor H-related-1 (FHR-1), serum-derived (human (endogenous in serum)) (UniProt Q03591); test: ELISA; FHR-1/2 ELISA of equal amounts of CFHR1-deficient and CFHR2^mut/mut (FHR-2-deficient) serum, mixed and incubated at 37°C for >2 h
[6] = biological target: Factor H-related-2 (FHR-2), serum-derived (human (endogenous in serum)) (UniProt P36980); test: ELISA; sandwich ELISAs for dimers in serum: FHR-1/1 (anti-FH.02 to capture and to detect), FHR-1/2 (anti-FH.02 to capture, anti-FHR-2 to detect), FHR-2/2 (anti-FHR-2-FLAG on anti-FLAG to capture, biotinylated anti-FHR-2 to detect); serum diluted in HPE, RT
[7] = biological target: Recombinant human FHR-1 (rFHR-1), CFHR1*A allotype, C-terminal 6×His (human) (UniProt Q03591); test: ELISA; FHR-1/2 ELISA (anti-FH.02 to capture, anti-FHR-2 to detect) of pooled CFHR3/CFHR1-deficient serum incubated with 5 µg/mL rFHR-1 at 37°C for >2 h; only the target purified
[8] = biological target: Factor H-related-1 (FHR-1), serum-derived (human (endogenous in serum)) (UniProt Q03591); test: co-IP; from 200 µL human serum of healthy donors with zero or two copies of CFHR1, without prior purification; anti-FH.02 (FHR-1), anti-FHR-2 or anti-FHR-5.1 on RM-19 Sepharose, PBS with 0.1% Tween-20, 0.1% BSA, 10 mM EDTA, o/n at 4°C; Western blot with anti-FHR-2.1 and anti-FHR-5.4

Measured: binding

Recombinant human FHR-1 (rFHR-1), CFHR1*A allotype, C-terminal 6×His (from UniProt Q03591 19-330)
binds: [1]

Factor H-related-1 (FHR-1), serum-derived (from UniProt Q03591 19-330)
binds: [2] | [3]

Factor H-related-2 (FHR-2), serum-derived (from UniProt P36980 19-270)
not listed: [1] | [3]
binds: all other assays above
